Measurements published in PMC10267116, “Structural and functional analysis of a plant nucleolar RNA chaperone-like protein”.
Results are given in words; binding and its absence hold for the method and conditions named.

Biological target: T1, NUCLEOLAR RNA CHAPERONE-LIKE 1 (NURC1) full-length protein (A. thaliana), Q9LZ65
T1 chain: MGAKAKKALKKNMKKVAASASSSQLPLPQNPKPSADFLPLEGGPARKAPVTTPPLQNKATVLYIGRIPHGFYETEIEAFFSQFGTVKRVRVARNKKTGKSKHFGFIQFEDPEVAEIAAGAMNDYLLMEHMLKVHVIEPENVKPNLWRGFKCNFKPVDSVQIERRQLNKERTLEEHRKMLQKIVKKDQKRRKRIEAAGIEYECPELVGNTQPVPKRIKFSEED
Assay: SEC-MALLS; Superdex 75 Increase 10/300 GL, 0.5 ml/min; running buffer HNa2PO4 pH 7.5, 300 mM NaCl, 5% glycerol, 1 mM DTT; loading concentration in Supplementary Table S3; both purified
Settings: remark: other sources report otherwise

binding: no binding
B1: NUCLEOLAR RNA CHAPERONE-LIKE 1 (NURC1) full-length protein, Q9LZ65 1-222 (protein)
chain: MGAKAKKALKKNMKKVAASASSSQLPLPQNPKPSADFLPLEGGPARKAPVTTPPLQNKATVLYIGRIPHGFYETEIEAFFSQFGTVKRVRVARNKKTGKSKHFGFIQFEDPEVAEIAAGAMNDYLLMEHMLKVHVIEPENVKPNLWRGFKCNFKPVDSVQIERRQLNKERTLEEHRKMLQKIVKKDQKRRKRIEAAGIEYECPELVGNTQPVPKRIKFSEED
